Measured values: paper PMC12992657
Results are given in words; binding and its absence hold for the method and conditions named. Binding seen in cells or lysates may run through a third protein. Some binding calls cover weakened binding; strength is not graded here.

Molecular target: T1, Potassium chloride cotransporter (KCC2) (mouse (endogenous in cortex and hippocampus)) (UniProt Q91V14)
T1 sequence: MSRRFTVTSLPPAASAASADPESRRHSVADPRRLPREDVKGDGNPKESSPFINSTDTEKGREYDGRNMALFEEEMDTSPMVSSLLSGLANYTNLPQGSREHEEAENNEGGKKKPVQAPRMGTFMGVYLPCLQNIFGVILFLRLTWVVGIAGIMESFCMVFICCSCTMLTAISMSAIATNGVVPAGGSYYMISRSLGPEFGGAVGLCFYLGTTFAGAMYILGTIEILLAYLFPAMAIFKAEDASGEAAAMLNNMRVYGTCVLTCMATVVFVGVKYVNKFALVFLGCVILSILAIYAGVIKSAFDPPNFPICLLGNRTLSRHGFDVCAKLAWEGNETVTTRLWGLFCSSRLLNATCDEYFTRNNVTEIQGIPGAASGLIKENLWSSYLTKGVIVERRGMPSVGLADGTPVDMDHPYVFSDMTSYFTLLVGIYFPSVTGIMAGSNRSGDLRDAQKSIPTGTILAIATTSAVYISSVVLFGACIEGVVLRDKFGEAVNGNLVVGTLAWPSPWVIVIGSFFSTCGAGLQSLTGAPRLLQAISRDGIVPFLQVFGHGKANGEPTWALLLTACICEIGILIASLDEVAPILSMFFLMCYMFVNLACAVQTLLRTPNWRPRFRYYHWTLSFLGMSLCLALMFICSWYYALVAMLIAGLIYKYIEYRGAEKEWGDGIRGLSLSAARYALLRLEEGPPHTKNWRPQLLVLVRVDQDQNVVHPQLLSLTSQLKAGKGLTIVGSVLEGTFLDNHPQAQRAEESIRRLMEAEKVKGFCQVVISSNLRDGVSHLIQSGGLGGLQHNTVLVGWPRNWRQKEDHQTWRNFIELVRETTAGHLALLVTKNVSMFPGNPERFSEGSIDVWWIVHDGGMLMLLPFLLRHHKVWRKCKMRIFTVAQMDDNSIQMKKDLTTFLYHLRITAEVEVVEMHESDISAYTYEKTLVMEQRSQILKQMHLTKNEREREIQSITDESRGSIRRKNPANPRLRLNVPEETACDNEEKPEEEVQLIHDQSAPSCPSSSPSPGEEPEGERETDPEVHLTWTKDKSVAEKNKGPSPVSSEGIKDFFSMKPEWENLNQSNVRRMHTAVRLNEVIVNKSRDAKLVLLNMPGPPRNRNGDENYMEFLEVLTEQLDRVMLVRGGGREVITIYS
Test: co-IP; KCC2 antibody or nonimmune mouse IgG cross-linked to Protein G Dynabeads; purified plasma membrane preparations of cortex and hippocampus of WT and Cdkl5 KO mice; precipitate immunoblotted with CDKL5 antibody

B1: Cyclin-dependent kinase-like 5 (CDKL5) (protein, UniProt Q3UTQ8 1-938)
chain: MKIPNIGNVMNKFEILGVVGEGAYGVVLKCRHKETHEIVAIKKFKDSEENEEVKETTLRELKMLRTLKQENIVELKEAFRRRGKLYLVFEYVEKNMLELLEEMPNGVPPEKVKSYIYQLIKAIHWCHKNDIVHRDIKPENLLISHNDVLKLCDFGFARNLSEGNNANYTEYVATRWYRSPELLLGAPYGKSVDMWSVGCILGELSDGQPLFPGESEIDQLFTIQKVLGPLPSEQMKLFYSNPRFHGLRFPAVNHPQSLERRYLGILNSVLLDLMKNLLKLDPADRYLTEQCLNHPTFQTQRLLDRSPSRSTKRKPYHVESSTLSNRNQSTKGAALQTHHRSNSKDIQNLSVGLPRAEEGLPANESFLNGNLAGATLSPMHTKTYQASTQPGSSSKDLTNNNIPHLLSPKEAKSKTEFDFNIDTKPSEGPGTKYLKSSTRSQQNRHSFMESSQSKAGTLQPSEKQSRHSYIDTIPQSSRSPSYRTKAKSHGALSDSKSVSNLSEARAQITETNTSRYFPSSCLDLNSPTSPTPTRHTDTRTLLSPSGRNNRNEGTLDSRRTTTRHSKTMEELKLPEHMDSSHSHSLSAPHESFSYGLGYTSPFSSQQRPHRHSMYVTRDKVRAKGLDGSLSIGQGMAARANSLQLLSPQPGEQLPPEMTVARPSVKESSREGASSFHTRQKSEGGVYHDPHSDDGTAPKENRHLYNDPVPRRVGSFYRVPSPRPDNSFHENNVSTRVSSLPSDSSSGTNHSKRQPGFDPWKSPENISHADQLKEKEKQGFFRSMKKKKKKTQTVPNTDGPDLLTLQKAIHSSSTASSRPKEWRPEKLSDLQTQSQPLKSLRKLLHLSSSTNHPASSDPRFQPLTAQQAKNSFSEIRIHPLSQATGGSSNIRQEPTPKGRPALQLPGSSLLRYNGWKHSRSRSSQPDEVIFLASHEKWKQ
With B1 the binding was “binds”.
